Source: US20230039851A1 (ARO BIOTHERAPEUTICS, published 2023)
Changes are numbered by the printed parent chain. In names and notes the source's numbering stands. These are yes or no findings as the source states them, for the method shown. Some binding calls cover weakened binding; strength is not graded here. Values belong to the binder of their own block, whether it stands above or below them.

Amino acid sequences for entries named in this document (tags omitted). A change or cut given only in a name is not applied to a line headed by its entry. Residues count along the entry.
UniProt P02768, residues 213-409: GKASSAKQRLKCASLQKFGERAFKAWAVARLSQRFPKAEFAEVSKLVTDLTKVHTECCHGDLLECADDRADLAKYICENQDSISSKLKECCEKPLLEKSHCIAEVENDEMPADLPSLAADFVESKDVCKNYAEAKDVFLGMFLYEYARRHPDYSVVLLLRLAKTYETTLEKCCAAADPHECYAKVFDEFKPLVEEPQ
UniProt A2V9Z4: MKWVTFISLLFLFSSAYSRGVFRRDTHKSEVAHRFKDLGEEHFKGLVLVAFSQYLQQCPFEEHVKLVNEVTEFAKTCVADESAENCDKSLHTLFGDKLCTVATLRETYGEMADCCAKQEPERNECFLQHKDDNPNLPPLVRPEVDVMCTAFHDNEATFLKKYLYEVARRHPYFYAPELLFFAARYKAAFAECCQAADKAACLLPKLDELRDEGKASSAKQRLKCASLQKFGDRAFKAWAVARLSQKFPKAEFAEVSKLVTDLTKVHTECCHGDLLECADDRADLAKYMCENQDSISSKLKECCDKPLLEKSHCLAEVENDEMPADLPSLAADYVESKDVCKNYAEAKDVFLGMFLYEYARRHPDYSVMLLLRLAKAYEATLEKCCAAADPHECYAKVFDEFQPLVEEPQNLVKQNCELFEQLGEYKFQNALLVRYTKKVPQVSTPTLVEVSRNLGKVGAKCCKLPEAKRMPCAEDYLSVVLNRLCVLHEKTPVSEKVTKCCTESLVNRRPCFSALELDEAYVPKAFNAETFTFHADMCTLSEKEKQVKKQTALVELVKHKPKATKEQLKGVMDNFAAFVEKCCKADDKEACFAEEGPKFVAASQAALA

Experiments:
[1] = biological target: T1, Human Serum Albumin (human, UniProt P02768 25-609); experiment: pull-down of endogenous albumin from human serum
T1 construct: ELISA: albumin coated on plates; pull-down: endogenous albumin in normal human serum; also called HSA; Human SA

[2] = biological target: T2, Cynomolgus Serum Albumin (cynomolgus monkey, UniProt A2V9Z4 25-608); experiment: pull-down of endogenous albumin from cynomolgus serum
T2 construct: ELISA: albumin coated on plates; pull-down: endogenous albumin in cynomolgus serum; also called cSA; Cyno SA

[3] = biological target: human albumin domain II (human) (UniProt P02768); experiment: ELISA on coated albumin

binding [1]: binds | binding [2]: binds
B1: A10V, R49A (designed binder)
chain: MLPAPKNLVVSRVTEDSARLSWTAPDAAFDSFNIAYWEPGIGGEAIWLAVPGSERSYDLTGLKPGTEYKVWIHGVKGGASSPPLIARFTT
notes: Variant of B7; not shown: His tag: FN3 domains were purified as His-tagged proteins

binding [3]: binds
B2: B7 (designed binder)
chain: B1 chain with V10A, A49R
notes: FN3 domain (Tencon27-based library clone) expressed in E. coli; also called ALB40; not shown: His tag: FN3 domains were purified as His-tagged proteins
